In PubChem BioAssay AID540256 (National Center for Advancing Translational Sciences (NCATS), 2011):
The campaign covered roughly 300,000 compounds. About 3,700 (1.2%) were called active. The inconclusive results got no clear call from the source; some entries with a clear call stand among them for comparison. Calls follow the shape of the full dose curve; tested in HEK293 cells. A potency beside an inconclusive call is a rough fit, not a confirmed value.

Experiment: qHTS for Inhibitors of binding or entry into cells for Lassa Virus; also: nearly all actives have a fitted effect of over 50% in size
Conditions: Lassa virus pseudotype entry inhibition, cell reporter; activity change, negative = inhibition: at 37.9 µM (top of the series) unless noted
% is scaled to controls: 0 for no effect and ±100 for the full control effect; potency is read from the fitted curve at half-maximal effect.

Question: With COc1cn(CC(=O)Nc2ccc(F)cc2)c(CN2CCCCC2)cc1=O as the compound, how does the “activity change, negative = inhibition” value read?
Answer: The value was inactive: -13.8% [at 46.1 µM].

Question: For CC(C)(C)OC(=O)Nc1ccc(OCc2cn(CC(=O)c3ccc(O)cc3)nn2)cc1, which Potency is on record?
Answer: Its Potency is inconclusive: 0.112 µM [activator, full curve, poor fit].

Question: Which Potency does the source give for CCS(=O)(=O)c1nc(S(=O)(=O)c2ccc(Cl)cc2)c(N2CCc3ccccc3C2)s1 here?
Answer: Its Potency is inconclusive: 35.5 µM [inhibitor, partial curve, poor fit].

Question: For CC1=C(C(=O)Nc2ccc([N+](=O)[O-])cc2)C(c2cccc(C(F)(F)F)c2)NC(=S)N1c1ccccc1 (stereo not given), which Potency is on record?
Answer: Its Potency is inconclusive: 16.4 µM [inhibitor, single point].

Question: With O=C1NC(=O)C(c2cccc(Cl)c2)=C1Nc1ccc(O)c(Cl)c1 as the compound, how does the Potency read?
Answer: Its Potency is inconclusive: 25 µM [inhibitor, single point].

Question: Which “activity change, negative = inhibition” value does the source give for CC(NC(=O)c1ccc(OC2CCN(Cc3ccccn3)CC2)cc1)c1ccccc1 (stereo not given) here?
Answer: The value was inactive: 18.9%.

Question: Which Potency does the source give for COc1ccc(C(=O)OCC(=O)NC23CC4CC(CC(C4)C2)C3)c(OC)c1OC here?
Answer: The Potency was inconclusive: 14.1 µM [inhibitor, partial curve, poor fit].

Question: Which Potency does the source give for O=C1NC(c2cccc3ccccc23)Nc2ccccc21 (stereo not given) here?
Answer: The Potency was inconclusive: 7.08 µM [inhibitor, partial curve, poor fit].

Question: Which Potency does the source give for COc1ccccc1C1N(c2ccc(F)cc2)C(=O)C2CCCN21 (stereo not given) here?
Answer: Its Potency is inconclusive: 14.6 µM [activator, partial curve, poor fit].

Question: Which Potency does the source give for CCCCn1cnc2c([nH]c3ccccc32)c1=O here?
Answer: Its Potency is inconclusive: 15.8 µM [activator, single point].

Question: For Cc1ccc(C)c(N2CCN(Cc3nnnn3C3CCCCC3)CC2)c1, which Potency is on record?
Answer: Its Potency is inconclusive: 10 µM [inhibitor, partial curve, poor fit].

Question: Which Potency does the source give for Cc1ccc(C)c(N2CCN(C(=O)CCC(=O)Nc3ccc4nc(N5CCCCC5)cc(C)c4c3)CC2)c1 here?
Answer: Its Potency is inconclusive: 1.78 µM [inhibitor, full curve, poor fit].

Question: With C=CCn1c(SCc2ccccc2C#N)nnc1-c1cc(Br)ccc1O as the compound, how does the “activity change, negative = inhibition” value read?
Answer: Its value is inactive: -11.7%.

Question: With CC(OC(=O)c1cccc(-n2cnnn2)c1)C(=O)NCc1ccccc1 (stereo not given) as the compound, how does the “activity change, negative = inhibition” value read?
Answer: Its value is inactive: 10.3%.

Question: With O=C(NCc1ccc2c(c1)OCO2)c1cccs1 as the compound, how does the “activity change, negative = inhibition” value read?
Answer: The value was inactive: 3.93%.

Question: With COc1ccc(S(=O)(=O)N(CC(=O)NCCSc2ccccn2)c2ccccc2)cc1 as the compound, how does the Potency read?
Answer: The Potency was inconclusive: 3.55 µM [inhibitor, partial curve, poor fit].

Question: With Cc1cccc(C)c1NC(=S)N1CCCCCC1 as the compound, how does the Potency read?
Answer: The Potency was inconclusive: 3.55 µM [inhibitor, partial curve, poor fit].

Question: For O=C(Nc1nc2c(s1)CCCC2)c1cccnc1, which “activity change, negative = inhibition” value is on record?
Answer: Its value is inactive: -21.2%.

Question: Which “activity change, negative = inhibition” value does the source give for O=C(Nc1ccc2c(c1)OCO2)c1ccc(Br)o1 here?
Answer: Its value is inactive: -15.3%.

Question: Which Potency does the source give for CC(=O)Nc1sc(C)c(C)c1C(=O)OCCOc1ccccc1 here?
Answer: Its Potency is inconclusive: 31.6 µM [inhibitor, partial curve, poor fit].

Question: Which “activity change, negative = inhibition” value does the source give for COc1ccc(C)cc1NC(=O)CN1c2ccccc2S(=O)(=O)c2ccccc21 here?
Answer: Its value is inactive: 9.45% [at 46.1 µM].

Question: Which Potency does the source give for COc1ccc(NC(=O)c2cccc(N3CCCS3(=O)=O)c2)cc1OC here?
Answer: Its Potency is inconclusive: 35.5 µM [activator, single point].

Question: Which Potency does the source give for CC(C)Cc1ccc(S(=O)(=O)N2CCC(c3ccncc3)CC2)cc1 here?
Answer: The Potency was inconclusive: 35.5 µM [inhibitor, single point].

Question: For Cc1nc(N2CCCC2)ncc1C(=O)NCc1cccc(Cl)c1, which “activity change, negative = inhibition” value is on record?
Answer: Its value is inactive: -5.16% [at 46.1 µM].

Question: For c1cc(C(c2nnnn2C2CCCC2)N2CCOCC2)ccn1 (stereo not given), which “activity change, negative = inhibition” value is on record?
Answer: The value was inactive: 5.3%.

Question: With COc1cc(C)c(C(C)C)cc1S(=O)(=O)NC1CC(C)(C)NC(C)(C)C1 as the compound, how does the Potency read?
Answer: The Potency was inconclusive: 15.8 µM [inhibitor, single point].

Question: Which “activity change, negative = inhibition” value does the source give for COc1ccc(-n2nc([N+](=O)[O-])c(=NC3CCN(Cc4ccccc4)CC3)n2O)cc1 here?
Answer: The value was inactive: -0.64% [at 46.1 µM].

Question: For Cc1ccc(NC(=O)CCOc2ccccc2)cc1, which “activity change, negative = inhibition” value is on record?
Answer: Its value is inactive: 18.6% [at 46.1 µM].

Question: For Cn1c(N)c(C(=O)COC(=O)c2ccccc2C(=O)c2ccc(Cl)c([N+](=O)[O-])c2)c(=O)n(C)c1=O, which Potency is on record?
Answer: The Potency was inconclusive: 35.5 µM [inhibitor, single point].

Question: Which Potency does the source give for CN(C)c1ccc(C=Cc2cnccn2)cc1 here?
Answer: Its Potency is inconclusive: 35.5 µM [inhibitor, single point].

Question: Which “activity change, negative = inhibition” value does the source give for COc1ccc(NC(=O)C2COc3ccccc3C2)cc1Cl (stereo not given) here?
Answer: The value was inactive: 4.45% [at 46.1 µM].

Question: With Cc1ccc(CNc2nc(-c3ccco3)nn2S(C)(=O)=O)cc1 as the compound, how does the “activity change, negative = inhibition” value read?
Answer: Its value is inactive: 25.9% [at 46.1 µM].

Question: With Cc1ccccc1NC(=S)NCc1ccccc1 as the compound, how does the Potency read?
Answer: The Potency was inconclusive: 6.51 µM [activator, single point].

Question: For C=CCOC(=O)c1[nH]c2c(c1C)C(=O)CC(c1cc(OC)c(OC)c(OC)c1)C2 (stereo not given), which Potency is on record?
Answer: Its Potency is inconclusive: 4.61 µM [inhibitor, partial curve].

Question: Which Potency does the source give for Cc1cc(N2CCN(C)CC2)nc2ccc(NC(=S)N3CCOCC3)cc12 here?
Answer: Its Potency is inconclusive: 10 µM [activator, partial curve, poor fit].

Question: Which Potency does the source give for COc1cccc(CNC(=O)C(=O)NCCC2CCCCN2S(=O)(=O)c2ccc(C)cc2)c1 (stereo not given) here?
Answer: The Potency was inconclusive: 6.31 µM [inhibitor, partial curve].

Question: For Cc1ccc(CNC(=O)CSc2nc(C)cc(C)c2C#N)cc1, which Potency is on record?
Answer: Its Potency is inconclusive: 20.6 µM [inhibitor, single point].

Question: For Cn1c(SCC(=O)Nc2ccccc2)nnc1-c1ccccc1, which “activity change, negative = inhibition” value is on record?
Answer: Its value is inactive: -1.28% [at 46.1 µM].

Question: For COc1cc(CCN2C(=O)c3cccc4cccc(c34)C2=O)c(S(=O)(=O)N2CCC(C)CC2)cc1OC, which Potency is on record?
Answer: Its Potency is inconclusive: 35.5 µM [inhibitor, single point].

Question: For CCN(C(=O)c1cc2cc(OC)ccc2oc1=O)c1cccc(C)c1, which “activity change, negative = inhibition” value is on record?
Answer: Its value is inactive: -22.2%.

Question: Which Potency does the source give for O=C(Nc1nc2ccc(Cl)cc2s1)c1ccc(N2CCCCC2)c([N+](=O)[O-])c1 here?
Answer: The Potency was inconclusive: 35.5 µM [inhibitor, single point].

Question: Which Potency does the source give for CSc1nc2nccc(-c3ccc(Oc4ccccc4)cc3)n2n1 here?
Answer: The Potency was active: 15.8 µM.

Question: For COc1cc2c(=O)c(C(=O)c3ccc(C)c(C)c3)cn(Cc3ccccc3F)c2cc1OC, which Potency is on record?
Answer: The Potency was inconclusive: 4.47 µM [inhibitor, full curve].

Question: Which “activity change, negative = inhibition” value does the source give for COc1ccc(/C=C/C(=O)OCC(=O)NCc2ccco2)c(OC)c1 here?
Answer: Its value is inactive: -5.87% [at 46.1 µM].

Question: Which Potency does the source give for Nc1nc(-c2cccnc2)nn1C(=O)Cc1ccccc1 here?
Answer: The Potency was inconclusive: 0.517 µM [activator, full curve, poor fit].
